In doi:10.1101/2020.12.22.424016:
These are yes or no findings as the source states them, for the method shown. Binding seen in cells or lysates may run through a third protein. For some assays here: Binding calls can cover weak binding; strength is not graded here. Tags and fused reporters may be left off the sequences shown.

Amino acid sequences for entries named in this document (tags omitted). A change or cut given only in a name is not applied to a line headed by its entry.
UniProt F4JCT6: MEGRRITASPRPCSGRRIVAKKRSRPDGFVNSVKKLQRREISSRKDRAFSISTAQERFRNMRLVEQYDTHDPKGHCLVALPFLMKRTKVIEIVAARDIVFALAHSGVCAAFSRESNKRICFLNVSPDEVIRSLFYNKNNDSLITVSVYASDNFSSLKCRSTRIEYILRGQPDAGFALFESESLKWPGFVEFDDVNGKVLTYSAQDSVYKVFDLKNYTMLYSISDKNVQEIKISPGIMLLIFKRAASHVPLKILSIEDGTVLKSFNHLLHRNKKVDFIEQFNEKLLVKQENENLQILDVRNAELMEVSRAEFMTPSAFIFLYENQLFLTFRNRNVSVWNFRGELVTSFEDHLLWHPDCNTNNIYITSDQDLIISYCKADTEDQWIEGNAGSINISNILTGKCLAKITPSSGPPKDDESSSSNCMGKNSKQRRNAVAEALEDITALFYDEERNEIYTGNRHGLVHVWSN

Columns and labels:
Test in all cases: split reporter
[1] = target: T1, NIGT1.1, split-YFP fusion for BiFC (Arabidopsis thaliana) (UniProt Q9FPE8)
T1 sequence: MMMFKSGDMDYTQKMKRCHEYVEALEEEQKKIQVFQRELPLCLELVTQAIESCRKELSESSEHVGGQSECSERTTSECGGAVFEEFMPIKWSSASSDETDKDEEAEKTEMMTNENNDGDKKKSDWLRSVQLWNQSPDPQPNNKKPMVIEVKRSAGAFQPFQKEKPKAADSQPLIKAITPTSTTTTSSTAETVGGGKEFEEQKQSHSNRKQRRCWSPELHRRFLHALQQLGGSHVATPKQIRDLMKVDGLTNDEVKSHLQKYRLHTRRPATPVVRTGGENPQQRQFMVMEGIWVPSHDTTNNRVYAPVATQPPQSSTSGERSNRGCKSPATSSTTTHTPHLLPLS

[2] = target: T2, FBS1, split-YFP fusion for BiFC (Arabidopsis thaliana) (UniProt Q8GX77)
T2 sequence: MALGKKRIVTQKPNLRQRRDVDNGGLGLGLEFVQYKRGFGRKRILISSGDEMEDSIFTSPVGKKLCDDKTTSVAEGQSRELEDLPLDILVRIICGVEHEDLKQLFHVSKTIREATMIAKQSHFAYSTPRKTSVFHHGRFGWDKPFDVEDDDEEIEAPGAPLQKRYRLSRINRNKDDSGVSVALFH

[3] = target: T3, FBS3, split-YFP fusion for BiFC (Arabidopsis thaliana) (UniProt Q9S9T6)
T3 sequence: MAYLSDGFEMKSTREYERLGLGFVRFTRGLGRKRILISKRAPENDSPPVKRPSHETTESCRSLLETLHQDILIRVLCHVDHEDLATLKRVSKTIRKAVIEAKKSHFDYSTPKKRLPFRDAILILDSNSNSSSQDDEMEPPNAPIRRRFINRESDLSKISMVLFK

[4] = target: T4, FBS4, split-YFP fusion for BiFC (Arabidopsis thaliana) (UniProt Q5XF11)
T4 sequence: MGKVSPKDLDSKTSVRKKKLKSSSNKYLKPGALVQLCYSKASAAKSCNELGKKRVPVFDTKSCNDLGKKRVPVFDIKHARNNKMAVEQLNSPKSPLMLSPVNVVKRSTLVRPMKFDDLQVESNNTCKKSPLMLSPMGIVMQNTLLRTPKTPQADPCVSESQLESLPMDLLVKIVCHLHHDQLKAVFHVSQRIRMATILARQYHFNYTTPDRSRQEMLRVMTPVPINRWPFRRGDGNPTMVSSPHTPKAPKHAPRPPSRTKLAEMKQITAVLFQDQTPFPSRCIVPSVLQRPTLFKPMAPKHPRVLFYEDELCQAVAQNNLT

[5] = target: T5, FBS2, split-YFP fusion for BiFC (Arabidopsis thaliana) (UniProt O65416)
T5 sequence: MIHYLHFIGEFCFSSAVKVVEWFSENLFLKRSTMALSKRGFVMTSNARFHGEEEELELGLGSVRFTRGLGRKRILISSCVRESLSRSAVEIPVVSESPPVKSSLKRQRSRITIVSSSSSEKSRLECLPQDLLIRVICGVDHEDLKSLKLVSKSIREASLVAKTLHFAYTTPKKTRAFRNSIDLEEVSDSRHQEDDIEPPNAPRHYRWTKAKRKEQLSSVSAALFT

Row | binding [1] | binding [2] | binding [3] | binding [4] | binding [5] | Substance
1 | binds | binds | binds | – | – | FBIP1, split-YFP fusion for BiFC (from UniProt F4JCT6)
2 | binds | binds | binds | binds | no binding | FBIP2, split-YFP fusion for BiFC (Arabidopsis thaliana)
